PubChem BioAssay AID1224828 – NIAID, 2016
In all, the deposit lists about 17,000 reagents; this is a random part of them. Over the whole deposit, 762 (4.5%) were called active. 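Active calls include both raised and lowered p65 entry, mostly lowered; wells with fewer than 50 cells lack a z-score.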 Raw values vary from plate to plate and are shown uncorrected. Reagents against one gene are numbered here.

Assay: 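Knock-downs that increase or decrease LPS-induced p65 nuclear translocation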 (primary screen)
Cell system: mouse RAW264.7 G9 macrophage reporter cells (GFP-p65, Tnf promoter-mCherry)
Knock-down reagent: siRNA pool against mouse genes, 100 nM
Timing: 2 days siRNA transfection, then 40 min LPS before fixation
Conditions: LPS (Salmonella minnesota R595) at 10 ng/ml
Detection: 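Microscopy ratio of nuclear to perinuclear-ring GFP-p65 signal, scaled to the plate median; gene score is the average of two replicate robust z-scores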
Direction: p65 translocation robust z-score: higher = more nuclear NF-kappaB p65 after LPS than the plate median; nuclear/cytoplasmic p65 ratio: higher = more nuclear NF-kappaB p65
Active means: 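Called active when z exceeds 3.3 or falls under -1.56 (median of Tlr4 controls), giving activity score of at least 50; no calls for control wells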
Calls: active = hit (p65 shift raised or lowered); inactive = no clear change

target | pool no. | p65 translocation robust z-score | nuclear/cytoplasmic p65 ratio, rep 1 | nuclear/cytoplasmic p65 ratio, rep 2 | low cell count flag | outcome
Syt10 (synaptotagmin X) | 1 | 0.95 | 1.46 | 1.32 | enough cells to score | inactive
Acot10 (acyl-CoA thioesterase 10) | 1 | 1.39 | 1.7 | 2.02 | enough cells to score | inactive
Wars1 (tryptophanyl-tRNA synthetase1) | 1 | 0.05 | 1.56 | 1.58 | enough cells to score | inactive
Ubqln4 (ubiquilin 4) | 1 | -0.29 | 1.59 | 1.61 | enough cells to score | inactive
Abce1 (ATP-binding cassette, sub-family E member 1) | 1 | -0.09 | 1.65 | 1.61 | enough cells to score | inactive
Plxna1 (plexin A1) | 1 | – | 1.62 | 1.2 | fewer than 50 cells per well; well left out of scoring | inactive
Lsamp (limbic system-associated membrane protein) | 1 | 1 | 1.84 | 1.72 | enough cells to score | inactive
Ak5 (adenylate kinase 5) | 1 | -1.73 | 1.25 | 1.44 | enough cells to score | active
Obp1a (odorant binding protein IA) | 1 | 0.64 | 1.96 | 1.5 | enough cells to score | inactive
Trpc4 | 1 | -1.02 | 1.36 | 1.37 | enough cells to score | inactive
Cdhr4 (cadherin-related family member 4) | 1 | 0.92 | 1.74 | 1.64 | enough cells to score | inactive
Slc7a2 | 1 | 1.52 | 1.61 | 1.41 | enough cells to score | inactive
Fut4 (fucosyltransferase 4) | 1 | 0.59 | 1.69 | 1.53 | enough cells to score | inactive
Defb20 (defensin beta 20) | 1 | 0.39 | 1.52 | 1.56 | enough cells to score | inactive
Slc38a9 | 1 | 1.41 | 1.54 | 1.33 | enough cells to score | inactive
Slc38a9 | 2 | 0.89 | 1.57 | 1.65 | enough cells to score | inactive
Krtap19-1 (keratin associated protein 19-1) | 1 | -2.63 | 1.21 | 1.05 | enough cells to score | active
Saa4 (serum amyloid A 4) | 1 | -1.19 | 1.23 | 1.09 | enough cells to score | inactive
Jdp2 (Jun dimerization protein 2) | 1 | -1.68 | 1.32 | 1.2 | enough cells to score | active
Pdxk (pyridoxal (pyridoxine, vitamin B6) kinase) | 1 | 1.3 | 1.96 | 1.49 | enough cells to score | inactive
Sucnr1 (succinate receptor 1) | 1 | -0.75 | 1.38 | 1.49 | enough cells to score | inactive
Gast (gastrin) | 1 | 0.34 | 1.46 | 1.43 | enough cells to score | inactive
Pdzk1ip1 (PDZK1 interacting protein 1) | 1 | 1.04 | 1.85 | 1.72 | enough cells to score | inactive
Or6c69b (olfactory receptor family 6 subfamily C member 69B) | 1 | – | 1.76 | 1.21 | fewer than 50 cells per well; well left out of scoring | inactive
Syt3 (synaptotagmin III) | 1 | -0.32 | 1.32 | 1.19 | enough cells to score | inactive
Rimkla (ribosomal modification protein rimK-like family member A) | 1 | 0.88 | 1.53 | 1.66 | enough cells to score | inactive
Or1l8 (olfactory receptor family 1 subfamily L member 8) | 1 | 0.27 | 1.62 | 1.49 | enough cells to score | inactive
Slc49a3 | 1 | – | 1.23 | 1.25 | fewer than 50 cells per well; well left out of scoring | inactive
Eri1 (exoribonuclease 1) | 1 | 1.99 | 1.68 | 1.36 | enough cells to score | inactive
Rbm34 (RNA binding motif protein 34) | 1 | 0.76 | 1.62 | 1.72 | enough cells to score | inactive
Cd9 (CD9 antigen) | 1 | 0.7 | 1.53 | 1.5 | enough cells to score | inactive
Acp7 (acid phosphatase 7, tartrate resistant) | 1 | 1.22 | 1.67 | 1.62 | enough cells to score | inactive
Icosl (icos ligand) | 1 | 3.27 | 2.06 | 1.83 | enough cells to score | inactive
Cldn7 (claudin 7) | 1 | -0.31 | 1.46 | 1.82 | enough cells to score | inactive
Ryk (receptor-like tyrosine kinase) | 1 | -0.73 | 1.95 | 1.28 | enough cells to score | inactive
Ssna1 (SS nuclear autoantigen 1) | 1 | – | 1.46 | 1.49 | fewer than 50 cells per well; well left out of scoring | inactive
Tshz3 (teashirt zinc finger family member 3) | 1 | -1.38 | 1.24 | 1.08 | enough cells to score | inactive
Atf1 (activating transcription factor 1) | 1 | 0.14 | 1.57 | 1.7 | enough cells to score | inactive
Tob2 (transducer of ERBB2, 2) | 1 | 0.02 | 1.51 | 1.53 | enough cells to score | inactive
Ipo7 (importin 7) | 1 | 0.21 | 1.47 | 1.44 | enough cells to score | inactive

A stretch taken from the entries so far:
target | pool no. | p65 translocation robust z-score | nuclear/cytoplasmic p65 ratio, rep 1 | nuclear/cytoplasmic p65 ratio, rep 2 | low cell count flag | outcome
Rbm34 (RNA binding motif protein 34) | 1 | 0.76 | 1.62 | 1.72 | enough cells to score | inactive
Cd9 (CD9 antigen) | 1 | 0.7 | 1.53 | 1.5 | enough cells to score | inactive
